Laboratory results: US5580549A, “External preparation for skin” (priority 1992, dated 1996)
Some results were stated once for a whole list of compounds, not compound by compound.

Test system: human skin
Experiment: Examination for bleaching effect (lotion applied to sunlight-exposed skin, depression effect to the chromatosis)
Assay type: in vivo
Conditions: for subjects who judged the effect was "extremely effective" or "effective": bleaching effect examination, lotion; for bleaching effect (in words): in vivo
Experimental: (2) E[…] BLEACHING EFFECT
Lotions were prepared by the following formula, using each sample. Namely, the alcohol phase and aqueous phase according to the following formula were prepared respectively, and both phases were mixed and dissolved according to an ordinal method. […]
______________________________________
Polyoxyethylene (25 moles) hydrogenated castor
Sodium hexametaphosphorate
Ion exchanged water balance
10 subjects for each group were exposed to sunlight in summer for 4 hours (2 hours×2 days). The lotion was applied to the facial skin of medialis brachii once each morning and evening […] after the day exposed to the sunlight for 8 weeks. After the application period, depression effect to the chromatosis which was caused by the ultraviolet irradiation was examined and evaluated, the degree of which was based on The following standard.
.circleincircle.: The number of the subjects who judged the result was "extremely effective" or "effective" were equal to or more than eight (Equal to or more than 80%).
.largecircle.: The number of the subjects who judged the result was "extremely effective" or "effective" were five to seven (from 50% less than 70%)
Δ: The number of the subjects who judged the result was "extremely effective" or "effective" were three to four (from 30% less than 40%)
×: The number of the subjects who judged the result was "extremely effective" or "effective" were less than two (less than 20%)
The inhibition effect to the tyrosinase activity which is essential for producing the melanine and bleaching effect for human skin by the 2-hydroxy alkoxybenzoic acid were examined by using samples described in TABLE 1.
The investigation for improvement of bleaching effect by adding other ingredients were carried out as described below.
Namely, the 2-hydroxy-3-methoxybenzoic acid as the 2-hydroxy alkoxy benzoic acid and sodium hyaluronate as the acid mucopolysaccharide were used for the examination of improvement of bleaching effect.
Lotions for the examination were prepared by adding 0.5 weight % of 2-hydroxy-3-methoxybenzoic acid into the alcohol phase and sodium hyaluronate into the aqueous phase of which the concentration as to be shown in TABLE 3.

Which results are given for `COc1cccc(C(=O)O)c1O` [Example 1, 2-hydroxy-3-methoxybenzoic acid]?
subjects who judged the effect was "extremely effective" or "effective": ≥ 80%; bleaching effect (in words): excellent bleaching effect compared with the comparative example a to d

`COc1ccc(O)c(C(=O)O)c1` [Example 3, 2-hydroxy-5-methoxybenzoic acid] was tested. Which “subjects who judged the effect was "extremely effective" or "effective"” value did it give?
Its value is at least 80%.

What about the “bleaching effect (in words)” value of the same molecule?
The value was “excellent bleaching effect compared with the comparative example a to d”.

With `COc1ccc(C(=O)O)c(O)c1` [Example 2, 2-hydroxy-4-methoxybenzoic acid] as the molecule, how does the “subjects who judged the effect was "extremely effective" or "effective"” value read?
Its value is at least 80%.

And the “bleaching effect (in words)” value?
The value was “excellent bleaching effect compared with the comparative example a to d”.

Which results are given for `CCOc1ccc(C(=O)O)c(O)c1` [Example 4, 2-hydroxy-4-ethoxybenzoic acid]?
subjects who judged the effect was "extremely effective" or "effective": ≥ 80%; bleaching effect (in words): excellent bleaching effect compared with the comparative example a to d
